# Assay results as given in PubChem BioAssay AID1439 (NMMLSC, 2008).
# Sequences of proteins named here, by UniProt entry; tags and fusion partners are left off.
# UniProt P09471, whole entry, looked up: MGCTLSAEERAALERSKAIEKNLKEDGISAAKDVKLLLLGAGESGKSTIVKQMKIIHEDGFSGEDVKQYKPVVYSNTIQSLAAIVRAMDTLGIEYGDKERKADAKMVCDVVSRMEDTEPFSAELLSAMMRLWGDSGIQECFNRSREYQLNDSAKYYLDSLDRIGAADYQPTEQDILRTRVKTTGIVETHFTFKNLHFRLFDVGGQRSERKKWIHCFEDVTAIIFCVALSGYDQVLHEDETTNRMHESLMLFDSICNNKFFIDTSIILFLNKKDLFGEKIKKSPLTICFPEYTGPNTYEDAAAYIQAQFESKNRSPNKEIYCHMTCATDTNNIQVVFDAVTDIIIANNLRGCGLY
# Hit rate of the full screen: of about 220,000 compounds, about 770 (0.35%) were called active. The inconclusive results got no clear call from the source; some entries with a clear call stand among them for comparison. Cut-off read from the data, not from the text of the source: active = binding response below about 49% or above about 150%; inconclusive = no clear call, values can overlap the other calls; inactive = in between.
# Biological target: Guanine nucleotide-binding protein G(o) subunit alpha (Homo sapiens) (UniProt P09471)
# Test: RGS7-Galphao binding modulators, primary screen, biochemical, multiplexed bead flow cytometry (AID 1439);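 note: fluorescent Galphao held in activated GDP-AlF4 state binding bead-coupled RGS7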
# Details: at 10 µM, actives lie on both sides
row,Structure (SMILES),binding response (% of control)
1,CC(=O)Nc1cccc(Oc2nc(-c3ccccn3)nc3ccccc23)c1,inconclusive: 80.5%
2,COc1ccc(OC)c(/C=N/NC(=O)c2cc3c(OC)cc(OC)cc3[nH]2)c1,inconclusive: 41%
3,O=C(COc1cccnc1[N+](=O)[O-])c1c[nH]c2ccccc12,inconclusive: 72%
4,Nc1ccc2c(c1)OCCOCCOCCOCCOCCO2,inconclusive: 126%
5,CC(C)(C)C1CCC(OC(=O)c2cncc(Br)c2)CC1 (stereo not given),inconclusive: 87.3%
6,S=c1[nH]nc(Cn2c(-c3ccccn3)nc3ccccc32)n1-c1ccc2c(c1)OCCO2,inconclusive: 88%
7,Nc1nnc(SCC(=O)OCC(=O)NC2CCCCC2)s1,inactive: 97.7%
8,CN(Cc1ccccc1)C(=O)c1nc2ccccn2c1CN1CCC(N2CCOCC2)CC1,inconclusive: 122%
9,CC(c1ccccc1)N1C(=O)/C(=C/c2ccncc2)SC1=S (stereo not given),inconclusive: 76.3%
10,CC(=O)c1ccc(NC(=O)CC2Nc3cccc4cccc(c34)NC2=O)cc1 (stereo not given),inconclusive: 95.1%
11,O=C(CN1CCCC1)Nc1ccc([N+](=O)[O-])cc1,inconclusive: 59.7%
12,COc1ccc(C2c3ccsc3CCN2C(=O)NC(C)(C)C)cc1 (stereo not given),inconclusive: 212%
13,Cc1ccc(Nc2nnc(C)c(=O)[nH]2)cc1,inconclusive: 86.9%
14,Cc1ccncc1C(N)=O,inconclusive: 259%
15,Cc1ccc(S(=O)(=O)N2CCN(c3ccccn3)CC2)cc1,inconclusive: 114%
16,CC1CC(=O)Nc2ccccc2N1S(=O)(=O)c1cccs1 (stereo not given),inconclusive: 117%
17,O=S(=O)(c1cccc(-c2nnc3n2CCCCC3)c1)N1CCOCC1,inconclusive: 311%
18,COc1cc(/C=C2/SC(=O)NC2=O)ccc1Oc1ccc([N+](=O)[O-])cc1[N+](=O)[O-],inconclusive: 88.5%
19,CN1CCN(/C(=N\O)c2nonc2N)CC1,inactive: 97.4%
20,O=C(NCc1ccco1)C1CC(c2ccccc2C(F)(F)F)=NO1 (stereo not given),inconclusive: 94%
21,O=C(NNc1nc(-c2ccccc2)cs1)c1ccc(F)cc1,inconclusive: 78.7%
22,Cc1ccc(NC(=O)C2(c3cccs3)CCOCC2)cc1C,inactive: 97.7%
23,CCN(CC)CCNS(=O)(=O)c1ccc(C(=O)NN)cc1,inconclusive: 86%

row,Structure (SMILES),binding response (% of control)
1,CCCC1Cc2c(sc(N)c2C#N)CO1 (stereo not given),inconclusive: 103%
2,COc1ccccc1N(C)S(=O)(=O)c1ccc(C(=O)OCC(=O)NCCC2=CCCCC2)cc1,inactive: 97.7%
3,COC(=O)c1sccc1S(=O)(=O)Nc1ccc(C)cc1,inconclusive: 60.3%
4,NC(=O)C1(N2CCCCC2)CCN(Cc2ccc(Br)cc2)CC1,inconclusive: 129%
5,C=CCNC(=O)c1ccc2c3n(nc2c1)-c1ccc(C)cc1CO3,inconclusive: 106%
6,COC(C[C@@H]1O[C@@H]1[C@H](O)[C@H](C)OCc1ccccc1)OC,inconclusive: 113%
7,Cc1ccc(C)c(SCc2nc3sc(C(=O)O)c(C)c3c(=O)[nH]2)c1,inconclusive: 136%
8,CC(C)CC(NC(=O)c1ccc(Cl)cc1)C(=O)OCc1cc([N+](=O)[O-])cc2c1OCOC2 (stereo not given),inactive: 102%
9,O=C(O)c1ccc(N/N=C/c2ccc(OC(=O)c3cccc(Cl)c3)cc2)cc1,inconclusive: 152%
10,Cc1cc(NS(=O)(=O)c2ccc(NC(=O)CSc3nc4ncc(Cl)cc4[nH]3)cc2)nc(C)n1,inconclusive: 129%
11,Cc1ccc(N2C(=O)C3C(c4ccccc4)(C2=O)C3(c2ccccc2)c2ccccc2)cc1 (stereo not given),active: 14.4%
12,Cc1cccc(N(C)C(=O)C2CCCN2S(=O)(=O)c2cccc3nsnc23)c1 (stereo not given),inconclusive: 97.8%
13,CC(=O)N/N=C/C1=CCC2CC1C2(C)C (stereo not given),inconclusive: 109%
14,COC(=O)c1nc(NC(=O)c2ccccc2Br)n[nH]1,inconclusive: 118%
15,COC(=O)CCCC1=CC2=CC(=O)C(C)(OC(=O)c3cccs3)C(=O)C2=CN1CCCCO (stereo not given),inconclusive: 123%
16,C=CCNCC(O)COc1ccc(C(C)=O)cc1OC (stereo not given),inconclusive: 104%
17,COc1cc(CC(=O)OCC(=O)N2CC(=O)Nc3ccccc32)cc(OC)c1OC,inconclusive: 106%
18,CCCc1ccc(C(=O)NNc2ccccc2F)cc1,inconclusive: -261%
19,CN(NC1OC(=O)c2ccccc21)c1ncc(Cl)cc1C(F)(F)F (stereo not given),inconclusive: 73.4%
20,Cc1c(NC(=O)c2cc(-c3ccc(O)cc3)on2)c(=O)n(-c2ccccc2)n1C,inconclusive: 68.1%
21,COc1ccc(/C=C2\N=C(c3ccccc3)N(c3ccc(C(=O)O)cc3)C2=O)cc1OC,inconclusive: 110%
22,Cc1ccc(SCC(=O)N2CCN(c3ccccn3)CC2)cc1,inconclusive: 92.4%
23,O=C(N/N=C/c1cccc2cccnc12)c1ccccc1O,inconclusive: 59.4%

# Part of the list above, bar-delimited.
row | Structure (SMILES) | binding response (% of control)
4 | NC(=O)C1(N2CCCCC2)CCN(Cc2ccc(Br)cc2)CC1 | inconclusive: 129%
6 | COC(C[C@@H]1O[C@@H]1[C@H](O)[C@H](C)OCc1ccccc1)OC | inconclusive: 113%
8 | CC(C)CC(NC(=O)c1ccc(Cl)cc1)C(=O)OCc1cc([N+](=O)[O-])cc2c1OCOC2 (stereo not given) | inactive: 102%

# Following part:

row,Structure (SMILES),binding response (% of control)
1,CCOC(=O)COc1ccc2c(=O)c(-c3ccc(OC)c(OC)c3)c(C(=O)OCC)oc2c1,inconclusive: 134%
2,COc1ccc(CNC(=O)CN(CC2CCCO2)C(=O)CNS(=O)(=O)c2ccc(C)cc2)cc1 (stereo not given),inactive: 99.3%
3,CC[C@@H]1CC=C[C@H]2[C@H]1C(=O)N(Cc1ccccc1)[C@H]2c1ccc2ccccc2c1,inconclusive: 107%
4,c1ccc(CNc2c3c(nc4ncnn24)CCC3)cc1,inconclusive: 107%
5,COc1ccccc1OCC(=O)Nc1ccc2c(c1)C(=O)N(CC1CCCO1)C2=O (stereo not given),inconclusive: 79.6%
6,CC(NC(=O)C1CCCCC1)C(c1cccs1)N1CCOCC1 (stereo not given),inconclusive: 78.8%
7,COCCN(C(=S)Nc1c(C)cc(C)cc1C)C(C)c1cccs1 (stereo not given),inactive: 105%
8,O=C(N/N=C\c1ccc(Cl)cc1)C1=NOC2COC3(CCN(c4ccc([N+](=O)[O-])cc4)CC3)OCC12 (stereo not given),inconclusive: 107%
9,COc1ccc(O)c(/C=N/NC(=O)c2cc(=O)[nH]c3ccccc23)c1,inconclusive: -110%
10,COC(=O)CNC(=O)Cn1cnc2sc(C)c(S(=O)(=O)N3CCC(C)CC3)c2c1=O,inactive: 103%
11,O=C(O)C1=C[C@H](c2ccc(F)cc2)C[C@H](OCCCCO)O1,inconclusive: 128%
12,O=C(c1cc([N+](=O)[O-])ccc1N1CCCC1)N1CCCCC1,inconclusive: 98.3%
13,OCc1nc2ccccc2n1Cc1c(F)cccc1Cl,inconclusive: 74.3%
14,O=C(C[n+]1cn(C(F)F)c2ccccc21)c1ccc(OC(F)F)cc1,inconclusive: 81.3%
15,C[C@H](N=C1NS(=O)(=O)c2ccccc21)C(=O)OCc1cc([N+](=O)[O-])cc2c1OCOC2,inconclusive: 127%
16,CC/C(=N\NC(=O)CCC(=O)NCc1ccccc1)c1ccc(O)cc1,inactive: 92.4%
17,O=C(NC1CCCCC1)C1CCN(S(=O)(=O)N2CCCCCC2)CC1,inactive: 107%
18,Cc1onc(-c2ccccc2)c1-c1nnc(-c2ccccc2C(F)(F)F)o1,inconclusive: 90.5%
19,NS(=O)(=O)c1ccc(NC(=O)C(=O)NCCC(=O)O)cc1,inconclusive: 77.9%
20,c1ccc2c(Nc3nc(-c4ccncc4)nc4ccccc34)cccc2c1,inconclusive: 115%
21,C/C(=N\O)C(C)Oc1ccc(Cl)cc1 (stereo not given),inactive: 101%
22,COc1ccc(-n2c(SCC(=O)Nc3cc(C)on3)nc3ccccc3c2=O)cc1Cl,inconclusive: 78%
23,O=C(COCC(=O)NCc1ccccc1)NCc1ccccc1,inactive: 102%

row,Structure (SMILES),binding response (% of control)
1,Cc1cccc(/N=C/c2c(C)[nH]n(-c3ccccc3)c2=O)n1,inconclusive: 84.7%
2,O=C(O)C(Sc1ccncn1)c1ccccc1 (stereo not given),inconclusive: 95.5%
3,CN(C(=O)c1cccs1)c1ccc(OCC(=O)N2CCC(C(N)=O)CC2)cc1,inconclusive: 116%
4,CCN(CC)C(=O)Oc1ccc(OC(=O)N(CC)CC)cc1,inconclusive: 107%
5,CC(C)(C)c1ccc(NC(=O)N2CCN(c3ccc([N+](=O)[O-])cn3)CC2)cc1,inconclusive: 161%
6,Cc1ccc(NC(=S)N=Nc2c(O)[nH]c3ccccc23)cc1,inconclusive: 108%
7,O=C(Nc1ccccc1N1CCCCC1)c1ncoc1-c1cccc(F)c1,inconclusive: 99.1%
8,N/C(Cc1ccccc1)=N\OC(=O)c1cccc2ccccc12,inactive: 95.6%
9,Nc1nc(SCC(=O)c2c(N)n(Cc3ccccc3)c(=O)[nH]c2=O)n[nH]1,inconclusive: 116%
10,C/C=C/C=C/C(=O)Nc1cccc(C2=NOC3(C2)C[C@H](C(N)=O)N(C(=O)CC(c2ccccc2)c2ccccc2)C3)c1 (stereo not given in full),inconclusive: 83.4%
11,O=C(CCc1ccccc1)N1CCN(c2ccc(F)cc2)CC1,inconclusive: 101%
12,CCOC(=O)C1CCN(S(=O)(=O)Cc2ccccc2)CC1,inactive: 101%
13,COc1cc(/C=N/Nc2nc(N3CCCC3)nc(N3CCCC3)n2)ccc1OCc1ccccc1F,inconclusive: 119%
14,CCNC(=O)COC(=O)c1cc(S(=O)(=O)N2CCCCC2)ccc1C,inconclusive: 124%
15,O=C1C2CC(O)CN2C(=S)N1Cc1ccccc1 (stereo not given),inconclusive: 60.9%
16,Cc1cc(C)c(C)c(OCC(=O)O/N=C(\N)c2cccnc2)c1,inconclusive: -35.1%
17,O=S(=O)(c1cc(Br)c(Cl)s1)N1CCCC1,inconclusive: 90.3%
18,COc1cccc(N2CN(C3CCCCC3)CNC2=S)c1,inconclusive: 49.4%
19,N#CCN1CCN(CC(=O)c2ccc(Br)cc2)CC1,inconclusive: 101%
20,CCc1nnc(N2C(=O)c3ccccc3C2(O)c2ccccc2)s1 (stereo not given),inconclusive: 67.7%
21,CS(=O)(=O)N1N=C(c2ccco2)CC1c1cccc([N+](=O)[O-])c1 (stereo not given),inconclusive: 92.5%
